Experimental data as given in the supplement of paper PMC12282887.
Values are raw readings; no control value is given beside them.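 For antimicrobials the highest concentration approximated the MIC. Most other compounds topped out at 500 µM, and known inducer-like compounds reached up to 1 mM. Inocula for deletion strains were tenfold smaller, and any well growing below 10% of the overall median was considered non-growing.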

Tested on: Escherichia coli BW25113
Assay: growth (OD600 area under curve, 8 h) (OD600 x h); higher = more growth
Description: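 E. coli BW25113 reporter strains (wild type, ΔmarA, ΔsoxS, Δrob, each carrying one of 8 lux reporter plasmids) were grown in 40 µl LB in 384-well plates at 37°C, 800 rpm, with each compound at 4 two-fold concentrations, in biological duplicates. Growth is the baseline-corrected OD600 area under the curve over 8 h (0-8 h WT, 1-9 h deletion strains).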

CCN(CC)CCOC(=O)c1ccc(N)cc1 [Procaine]
growth
Details | reporter plasmid: EVC | reporter plasmid: acrABp | reporter plasmid: marRABp | reporter plasmid: micFp | reporter plasmid: ompFp | reporter plasmid: robp | reporter plasmid: soxSp | reporter plasmid: tolCp
1329.2 µg/ml, genetic background: wild type | 2.13 | 2.39 | 2.49 | 2.4 | 2.11 | 2.15 | 1.89 | 2.3
1329.2 µg/ml, genetic background: ΔmarA | 2.39 | 3.05 | 2.4 | 2.45 | 2.3 | 2.7 | 1.63 | 2.13
1329.2 µg/ml, genetic background: Δrob | 1.94 | 2.43 | 2.47 | 2.02 | 1.65 | 1.83 | 1.41 | 2.25
1329.2 µg/ml, genetic background: ΔsoxS | 2.04 | 2.26 | 2.5 | 1.75 | 1.81 | 2.074 | 2.04 | 2.24
2658.5 µg/ml, genetic background: wild type | 1.8 | 2.34 | 2.31 | 1.89 | 1.9 | 1.8 | 1.69 | 2.12
2658.5 µg/ml, genetic background: ΔmarA | 2.04 | 2.59 | 2.24 | 1.77 | 2.08 | 2.58 | 1.33 | 1.81
2658.5 µg/ml, genetic background: Δrob | 1.69 | 2.2 | 2.22 | 1.59 | 1.25 | 1.39 | 1.05 | 1.89
2658.5 µg/ml, genetic background: ΔsoxS | 1.54 | 1.91 | 2.12 | 1.18 | 1.56 | 1.93 | 1.54 | 1.71
5317 µg/ml, genetic background: wild type | 1.49 | 1.86 | 1.83 | 1.42 | 1.54 | 1.49 | 1.33 | 1.837
5317 µg/ml, genetic background: ΔmarA | 1.38 | 1.6 | 1.63 | 1.66 | 1.584 | 1.72 | 0.88 | 1.23
5317 µg/ml, genetic background: Δrob | 1.19 | 1.48 | 1.63 | 1.14 | 0.89 | 1.09 | 0.708 | 1.38
5317 µg/ml, genetic background: ΔsoxS | 1.05 | 1.68 | 1.67 | 0.765 | 1.077 | 1.19 | 0.903 | 1.35
10634 µg/ml, genetic background: wild type | 0.996 | 1.55 | 1.46 | 0.906 | 1.41 | 1.4 | 0.958 | 1.1
10634 µg/ml, genetic background: ΔmarA | 0.745 | 1.47 | 1.35 | 0.598 | 1.11 | 1.3 | 0.638 | 0.507
10634 µg/ml, genetic background: Δrob | 0.451 | 1.24 | 1.09 | 0.344 | 0.689 | 0.726 | 0.301 | 0.44
10634 µg/ml, genetic background: ΔsoxS | 0.487 | 1.54 | 1.29 | 0.351 | 0.966 | 1.23 | 0.563 | 0.373
